Data source: PubChem BioAssay AID1259276 (Sanger Institute, 2017)
Test: 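Find kinases whose silencing cuts viability alone or combined with BYL719, cetuximab or trametinib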 (primary screen). System: human C2BBe1 colorectal cancer cells. Knock-down reagent: siRNA pool against human genes. Challenge: DMSO vehicle, or one anchor drug: BYL719 at 1 µM, cetuximab at 5 µg/ml, or trametinib at 10 nM; exposure length not stated. Read-out: 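Viability after knock-down relative to non-targeting siRNA controls, averaged across replicates, given as ratio and control-derived robust z-score, with per-drug synergy scores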. Scale: viability robust z-score, siRNA alone and viability vs control, siRNA alone: higher = more viable cells after knock-down. Active means: 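Called essential when knock-down alone gives a viability robust z-score below -3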. Calls: active = essential (siRNA alone); inactive = no change (siRNA alone).
Shown is an unselected part of 794 reagents tested. 24 of all reagents (3%) were called active. 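Calls come only from the siRNA-alone arm; drug synergy scores do not affect them.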 Entries without a mark were called inactive. No viability above 1 is reported: the scale is capped. Not all columns of the deposit are shown. Not given: the amount of reagent, the time to read-out.

CAMK1G (calcium/calmodulin dependent protein kinase IG) → viability robust z-score, siRNA alone: 0.472; viability vs control, siRNA alone: 1
MAP2K2 (mitogen-activated protein kinase kinase 2) → viability robust z-score, siRNA alone: 0.472; viability vs control, siRNA alone: 1
CDK3 (cyclin dependent kinase 3) → viability robust z-score, siRNA alone: 0.472; viability vs control, siRNA alone: 1
FRK (fyn related Src family tyrosine kinase) → viability robust z-score, siRNA alone: -2.88; viability vs control, siRNA alone: 0.789
SIK1 (salt inducible kinase 1) → viability robust z-score, siRNA alone: 0.472; viability vs control, siRNA alone: 1
WHR1 (winged helix repair factor 1) → viability robust z-score, siRNA alone: 0.472; viability vs control, siRNA alone: 1
PRPS1L1 (phosphoribosyl pyrophosphate synthetase 1 like 1) → viability robust z-score, siRNA alone: 0.472; viability vs control, siRNA alone: 1
EPHB3 (EPH receptor B3) → viability robust z-score, siRNA alone: 0.472; viability vs control, siRNA alone: 1
CSNK2A2 (casein kinase 2 alpha 2) → viability robust z-score, siRNA alone: -3.11 (active); viability vs control, siRNA alone: 0.774
LMTK2 (lemur tail kinase 2) → viability robust z-score, siRNA alone: -0.676; viability vs control, siRNA alone: 0.928
BRAF (B-Raf proto-oncogene, serine/threonine kinase) → viability robust z-score, siRNA alone: -1.73; viability vs control, siRNA alone: 0.861
MARK1 (microtubule affinity regulating kinase 1) → viability robust z-score, siRNA alone: 0.472; viability vs control, siRNA alone: 1
MAP3K7 (mitogen-activated protein kinase kinase kinase 7) → viability robust z-score, siRNA alone: -4.97 (active); viability vs control, siRNA alone: 0.657
DTYMK (deoxythymidylate kinase) → viability robust z-score, siRNA alone: 0.472; viability vs control, siRNA alone: 1
CHUK → viability robust z-score, siRNA alone: 0.472; viability vs control, siRNA alone: 1
YES1 (YES proto-oncogene 1, Src family tyrosine kinase) → viability robust z-score, siRNA alone: 0.472; viability vs control, siRNA alone: 1
PHKA1 (phosphorylase kinase regulatory subunit alpha 1) → viability robust z-score, siRNA alone: 0.472; viability vs control, siRNA alone: 1
CDKL3 (cyclin dependent kinase like 3) → viability robust z-score, siRNA alone: -1.6; viability vs control, siRNA alone: 0.869
MAP2K3 (mitogen-activated protein kinase kinase 3) → viability robust z-score, siRNA alone: 0.472; viability vs control, siRNA alone: 1

Copied from the list.
Value for WHR1 (winged helix repair factor 1) in “viability vs control, siRNA alone”: 1
PHKA1 (phosphorylase kinase regulatory subunit alpha 1), viability vs control, siRNA alone = 1
For “viability vs control, siRNA alone”, DTYMK (deoxythymidylate kinase) is entered as 1
